Measured values published in the supplement of paper PMC12067093, “Discovery and optimisation of a covalent ligand for TRIM25 and its application to targeted protein ubiquitination” (Chemical Science, 2025).
This is one part of the list.

Compound: CC1Cc2ccccc2N1C(=O)C1CCCN(C1)C(=O)CCl (mixture of isomers) [TRIM25 ligand 11 (diastereomer mixture)]
Test: probe-labelled cysteine peptide fold change vs DMSO (competition) (log2 fold change); higher = less target engagement (more negative = stronger competition)
Settings: THP-1, incubation time: 4 h
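Also: competitive chemoproteomic profiling in live THP-1 cells with an iodoacetamide desthiobiotin (IA-DTB) probe, comparing probe-labelled peptide intensities in compound-treated cells against DMSO-treated controls.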

Target | probe-labelled cysteine peptide fold change (10 µM) | probe-labelled cysteine peptide fold change (50 µM)
CHCHD5_Q9BSY4_22_ELEQYGQCVAAKPESWQR (UniProt Q9BSY4) | 0.047 | 0.2
CHD3_Q12873_1464_HLCEPGADGSETFADGVPR (UniProt Q12873) | -0.0391 | -0.19
CLK3_P49761_294_EGHLVCR (UniProt P49761) | 0.303 | 0.267
CIC_Q96RK0_336_APGSSSCGAER (UniProt Q96RK0) | -0.0918 | -0.168
CKAP5_Q14008_1768_TLLHTLCK (UniProt Q14008) | 0.0246 | -0.0622
CHAMP1_Q96JM3_770_CNFESNFPR (UniProt Q96JM3) | -0.0713 | 0.0125
CHMP5_Q9NZZ3_20_APPPSLTDCIGTVDSR (UniProt Q9NZZ3) | -0.0842 | -0.129
CHD4_Q14839_493_CTCPALK (UniProt Q14839) | 0.0193 | 0.209
CHORDC1_Q9UHD1_194+195_YWSCCR (UniProt Q9UHD1) | 0.132 | 0.179
CLIC4_Q9Y696_189_KFLDGNEMTLADCNLLPK (UniProt Q9Y696) | -0.146 | -0.327
CINP_Q9BW66_81_VCLEYNEELEK (UniProt Q9BW66) | -0.0595 | -0.0128
CHML_P26374_103_KKDETIQHTEAFCYASQDMEDNVEEIGALQK (UniProt P26374) | -0.0959 | -0.551
CLTC_Q00610_870_IHEGCEEPATHNALAK (UniProt Q00610) | 0.064 | -0.0249
CFAP298_P57076_83_CVPSGGAVFKK (UniProt P57076) | -0.323 | -0.293
CLASP2_O75122_1184_VLCPIIQTADYPINLAAIK (UniProt O75122) | 0.0331 | 0.0662

Full records as entered above. Order of values: probe-labelled cysteine peptide fold change (10 µM)	probe-labelled cysteine peptide fold change (50 µM)
CHMP5_Q9NZZ3_20_APPPSLTDCIGTVDSR (UniProt Q9NZZ3) in the list: -0.0842	-0.129
CLTC_Q00610_870_IHEGCEEPATHNALAK (UniProt Q00610) in the list: 0.064	-0.0249
